Measurements taken from patent publication EP2323645B1, “USE OF LOW-DOSE LOCAL ANAESTHETIC OR DERIVATIVES THEREOF FOR THERAPY OF CHRONIC PAIN, ESPECIALLY MIGRAINE” (priority 2008, dated 2010).

System: Menstruationsbeschwerden (Menorrhagien)
Conditions: deep bilateral paravertebral injections L2, 0,1 Gew.-%

CCN(CC)CC(=O)Nc1c(C)cccc1C [Lidocain]
Remission der Unterbauchschmerzen und -beschwerden: Spontane Remission
